Reference: PubChem BioAssay AID743121 (NCATS, 2013)
Purpose: 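Genes whose silencing strengthens cell killing by camptothecin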 (primary screen). System: MDA-MB-231 cells, a human breast cancer line. Reagents: single siRNA against human genes, 20 nM siRNA (0.8 pmol per well). Time to read-out: 120 h (drug added 48 h after transfection, read 72 h later). Treatment: camptothecin 20 nM (about EC30) for 72 h; vehicle 0.1% DMSO in parallel plates. Read-out: 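Cell viability by ATP luminescence (CellTiter-Glo) as % of non-targeting siRNA wells, and the log2 ratio of viability without drug over viability with camptothecin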. Direction: log2 vehicle/camptothecin viability: higher = stronger sensitisation to camptothecin; viability with camptothecin and viability without drug: higher = more viable cells. Active means: 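Each gene scored by redundant siRNA activity (RSA) over its individual siRNA ratios; a gene is called active at p < 0.001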.
The deposit covers about 26,000 reagents; this is an unselected part. Of all reagents, 167 (0.63%) got an active call. 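Calls are per gene from RSA p-values that are not deposited; an individual active-marked siRNA can sensitise only weakly.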 The numbers tell different reagents against one gene apart.

| gene knocked down | reagent no. | log2 vehicle/camptothecin viability | viability with camptothecin (% of control) | viability without drug (% of control) | call |
| --- | --- | --- | --- | --- | --- |
| PTGFR | 1 | -0.214 | 32 | 27.6 | inactive |
| PTGFR | 2 | 0.0715 | 55 | 57.8 | inactive |
| PTGFR | 3 | -0.188 | 39.4 | 34.6 | inactive |
| PTGFR | 4 | -0.147 | 118 | 106 | inactive |
| DRD4 | 1 | -0.256 | 102 | 85.2 | inactive |
| DRD4 | 2 | -0.252 | 62 | 52.1 | inactive |
| DRD4 | 3 | -0.655 | 81.2 | 51.5 | inactive |
| DRD4 | 4 | -0.196 | 72.7 | 63.5 | inactive |
| PICK1 | 1 | -0.511 | 113 | 79.4 | inactive |
| PICK1 | 2 | -0.6 | 104 | 68.5 | inactive |
| PICK1 | 3 | -0.155 | 113 | 102 | inactive |
| PICK1 | 4 | -0.232 | 117 | 99.3 | inactive |
| BAGE4 | 1 | -0.555 | 121 | 82.1 | inactive |
| BAGE4 | 2 | -0.307 | 88.4 | 71.5 | inactive |
| PDCD10 | 1 | -0.367 | 90.3 | 70.1 | inactive |
| PDCD10 | 2 | -0.0618 | 85.5 | 81.9 | inactive |
| PDCD10 | 3 | -0.379 | 90.7 | 69.7 | inactive |
| PDCD10 | 4 | -0.318 | 85.5 | 68.6 | inactive |
| RAB1B | 1 | -0.226 | 95.8 | 81.9 | inactive |
| OR1J4 | 1 | 0.321 | 14.6 | 18.3 | inactive |
| OR1J4 | 2 | 0.532 | 35.9 | 52 | inactive |
| OR1J4 | 3 | 0.261 | 86.3 | 103 | inactive |
| OR1J4 | 4 | -0.285 | 107 | 87.6 | inactive |
| HSPG2 | 1 | -0.421 | 49 | 36.6 | inactive |
| HSPG2 | 2 | 0.115 | 63.6 | 68.8 | inactive |
| HSPG2 | 3 | -0.261 | 68.4 | 57.1 | inactive |
| HSPG2 | 4 | -0.169 | 76.7 | 68.2 | inactive |
| LTK | 1 | -0.258 | 72.6 | 60.7 | inactive |
| LTK | 2 | -0.157 | 90 | 80.7 | inactive |
| LTK | 3 | -0.411 | 64 | 48.1 | inactive |
| LTK | 4 | -0.0329 | 43.2 | 42.2 | inactive |
| KPNA2 | 1 | 0.384 | 64.7 | 84.4 | inactive |
| KPNA2 | 2 | -0.174 | 36.7 | 32.5 | inactive |
| KPNA2 | 3 | -0.491 | 19.6 | 13.9 | inactive |
| MAP2K5 | 1 | -0.00461 | 75.3 | 75 | inactive |
| MAP2K5 | 2 | 0.0692 | 38.7 | 40.6 | inactive |
| MAP2K5 | 3 | 0.215 | 59.8 | 69.4 | inactive |
| MAP2K5 | 4 | -0.301 | 73.8 | 59.9 | inactive |
| SSU72 | 1 | -0.307 | 83.6 | 67.5 | inactive |
| SSU72 | 2 | -0.22 | 90.3 | 77.6 | inactive |
| SSU72 | 3 | 0.502 | 27.2 | 38.5 | inactive |
| SSU72 | 4 | -0.217 | 73.7 | 63.4 | inactive |
| IGFALS | 1 | -0.145 | 48.8 | 44.2 | inactive |
| IGFALS | 2 | -0.0181 | 90 | 88.8 | inactive |
| IGFALS | 3 | 0.789 | 18.2 | 31.4 | inactive |
| ROR2 | 1 | -0.213 | 58.9 | 50.9 | inactive |
| ROR2 | 2 | 0.0542 | 66.8 | 69.3 | inactive |
| ROR2 | 3 | -0.0755 | 75.6 | 71.8 | inactive |
| ROR2 | 4 | -0.05 | 35 | 33.8 | inactive |

Part of the list above in another layout:
gene knocked down | reagent no. | log2 vehicle/camptothecin viability | viability with camptothecin (% of control) | viability without drug (% of control) | call
DRD4 | 2 | -0.252 | 62 | 52.1 | inactive
DRD4 | 3 | -0.655 | 81.2 | 51.5 | inactive
DRD4 | 4 | -0.196 | 72.7 | 63.5 | inactive
PICK1 | 1 | -0.511 | 113 | 79.4 | inactive
PICK1 | 2 | -0.6 | 104 | 68.5 | inactive
PICK1 | 3 | -0.155 | 113 | 102 | inactive
PICK1 | 4 | -0.232 | 117 | 99.3 | inactive
BAGE4 | 1 | -0.555 | 121 | 82.1 | inactive
